# In patent publication US20070122802A1, “Methods of diagnosing and treating diabetes and insulin resistance” (priority 2002, published 2007):
# At least one compound was matched to its structure with a doubt left.
# Tests used:
# Format in all cases: in vivo, human
# Conditions in all cases: diabetic patients
# Ceramidase = assay: Gene expression profiling (Affymetrix chips) of muscle from diabetics before/after troglitazone: ceramidase transcripts
# From the text: (§1) The molecular mechanism by which thiazolidinediones (TZDs) cause an increase in peripheral insulin sensitivity was studied. Genes in muscle or fat whose expression is altered by TZDs may lie on a pathway leading from TZD treatment to increased insulin sensitivity. Modulators of such genes can elicit the same effect as TZD treatment. Moreover, such modulators can lack some of the side effects of TZD. The majority of glucose disposal occurs in muscle. For this reason, gene expression profiling in human muscle from diabetics treated with troglitazone was used to identify genes important for TZD action and therefore treatment of diabetes and insulin resistance. […]
# (§2) In the second study, samples were obtained from lean, obese, and diabetic individuals before and after a hyperinsulinemic euglycemic clamp. […] The gene expression profile for each individual was determined by hybridization of cRNA to custom synthesized Affymetrix chips.
# (§3) Gene expression profile differences were calculated as follows. […] The raw data was analyzed by a statistical test to remove ‘outliers’. The mean ‘average difference score’ was then calculated from the average difference scores for all individuals in a particular treatment group. Genes were determined to be changed in three different comparisons by calculating the Students t test statistic between two conditions and selecting those with t less than or equal to 0.05. […]
# PRK1 = assay: Gene expression profiling (Affymetrix chips) of muscle from diabetics before/after troglitazone: PRK1 transcripts
# From the text: as §1, §2, §3
# HIOMT = assay: Gene expression profiling (Affymetrix chips) of muscle from diabetics before/after troglitazone: HIOMT transcripts
# From the text: as §1, §2, §3
structure (smiles),measurement,setting,value
"Cc1c(C)c2c(c(C)c1O)CCC(C)(COc1ccc(CC3SC(=O)NC3=O)cc1)O2 (stereo not drawn) [Troglitazone, troglitazone]","Expression of transcripts encoding ceramidase, tro-treated compared to untreated patients",Ceramidase,reduced
same,"Expression of transcripts encoding PRK1, tro-treated compared to untreated patients",PRK1,decreased
same,"Expression of transcripts encoding HIOMT, tro-treated compared to untreated patients",HIOMT,increased
